{
  "source": "the supplement of paper PMC4604168 (melanoma cell lines)",
  "note": "The list shows a part of the results. Single values are uncertain, as repeats are few or missing.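 The apoptosis fraction was the count of cleaved-PARP antibody-stained nuclei relative to all DNA-stained nuclei, imaged in 1,536-well plates. Screening doses were set so most cells survived, and baseline and induced cleaved-PARP levels vary greatly across cell lines.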",
  "data": [
    {"system": "WM1716", "assay": "cleaved PARP positive nuclei fraction relative to DMSO control; higher = more apoptosis", "settings": "library dose: low library concentration; 72 h", "units": {"cleaved PARP positive nuclei fraction": "%"}, "values": [
      {"smiles": "C[As](C)SC[C@H](NC(=O)CC[C@H](N)C(=O)O)C(=O)NCC(=O)O", "note": "[Darinaparsin] + COc1ccc(COc2ccc(Cc3cnc(N)nc3N)cc2OC)cc1 [GW2580] (first compound 0.4 µM, partner dose 1 µM)", "cleaved PARP positive nuclei fraction": 67.5},
      {"smiles": "C[C@]12O[C@H](C[C@]1(O)CO)n1c3ccccc3c3c4c(c5c6ccccc6n2c5c31)CNC4=O", "note": "[Lestaurtinib] + COc1ccc(-c2ccc3c(N4CCOCC4)nc(N4C[C@@H](C)O[C@@H](C)C4)nc3n2)cc1CO [KU0063794] (first compound 0.004 µM, partner dose 0.02 µM)", "cleaved PARP positive nuclei fraction": 50.4},
      {"smiles": "O=S(=O)(c1ccccc1)N(CC(F)(F)F)c1ccc(C(O)(C(F)(F)F)C(F)(F)F)cc1", "note": "+ Cc1cc(SCc2sc(-c3ccc(C(F)(F)F)c(F)c3)nc2C)ccc1OCC(=O)O [GW0742] (first compound 1.4 µM, partner dose 2 µM)", "cleaved PARP positive nuclei fraction": 110},
      {"smiles": "COc1ccc(COc2ccc(Cc3cnc(N)nc3N)cc2OC)cc1", "note": "+ Cc1cc(SCc2sc(-c3ccc(C(F)(F)F)c(F)c3)nc2C)ccc1OCC(=O)O [GW0742] (first compound 1 µM, partner dose 2 µM)", "cleaved PARP positive nuclei fraction": 86.1},
      {"smiles": "C[As](C)SC[C@H](NC(=O)CC[C@H](N)C(=O)O)C(=O)NCC(=O)O", "note": "[Darinaparsin] + CCc1ccc(CCOc2ccc(CC3SC(=O)NC3=O)cc2)nc1 [pioglitazone] (first compound 0.4 µM, partner dose 2 µM)", "cleaved PARP positive nuclei fraction": 107},
      {"smiles": "O=C(Oc1ccc([N+](=O)[O-])cc1)N1CCC(C(O)(c2ccc3c(c2)OCO3)c2ccc3c(c2)OCO3)CC1", "note": "+ CC(C)CCN1c2nc(Nc3cc(F)c(O)c(F)c3)ncc2N(C)C(=O)C1C [BID1870] (first compound 1 µM, partner dose 0.2 µM)", "cleaved PARP positive nuclei fraction": 98.1},
      {"smiles": "CO[C@H]1C[C@@H]2CC[C@@H](C)[C@@](O)(O2)C(=O)C(=O)N2CCCC[C@H]2C(=O)O[C@H]([C@H](C)C[C@@H]2CC[C@@H](OCCO)[C@H](OC)C2)CC(=O)[C@H](C)/C=C(\\C)[C@@H](O)[C@@H](OC)C(=O)[C@H](C)C[C@H](C)/C=C/C=C/C=C/1C", "note": "[everolimus] + Cc1cc(SCc2sc(-c3ccc(C(F)(F)F)c(F)c3)nc2C)ccc1OCC(=O)O [GW0742] (first compound 0.02 µM, partner dose 2 µM)", "cleaved PARP positive nuclei fraction": 179},
      {"smiles": "COc1cc(Nc2ncc(F)c(Nc3ccc4c(n3)NC(=O)C(C)(C)O4)n2)cc(OC)c1OC", "note": "[Tamatinib] + O=C(Oc1ccc([N+](=O)[O-])cc1)N1CCC(C(O)(c2ccc3c(c2)OCO3)c2ccc3c(c2)OCO3)CC1 [JZL184] (first compound 0.4 µM, partner dose 1 µM)", "cleaved PARP positive nuclei fraction": 66.3},
      {"smiles": "COc1cc2ncnc(Nc3ccc(Oc4ccccc4)cc3)c2cc1OC", "note": "+ O=C(Oc1ccc([N+](=O)[O-])cc1)N1CCC(C(O)(c2ccc3c(c2)OCO3)c2ccc3c(c2)OCO3)CC1 [JZL184] (first compound 2 µM, partner dose 1 µM)", "cleaved PARP positive nuclei fraction": 54.3},
      {"smiles": "C/C(O)=C(\\C#N)C(=O)Nc1cc(Br)ccc1Br", "note": "+ O=C(Oc1ccc([N+](=O)[O-])cc1)N1CCC(C(O)(c2ccc3c(c2)OCO3)c2ccc3c(c2)OCO3)CC1 [JZL184] (first compound 2 µM, partner dose 1 µM)", "cleaved PARP positive nuclei fraction": 131},
      {"smiles": "C/C(O)=C(\\C#N)C(=O)Nc1cc(Br)ccc1Br", "note": "+ CC(C)CCN1c2nc(Nc3cc(F)c(O)c(F)c3)ncc2N(C)C(=O)C1C [BID1870] (first compound 2 µM, partner dose 0.2 µM)", "cleaved PARP positive nuclei fraction": 64.4},
      {"smiles": "N#Cc1c(O)c2c(-c3ccc(-c4ccccc4O)cc3)csc2[nH]c1=O", "note": "+ C/C(O)=C(\\C#N)C(=O)Nc1cc(Br)ccc1Br [LFM-A13] (first compound 2 µM, partner dose 2 µM)", "cleaved PARP positive nuclei fraction": 86.2},
      {"smiles": "C[C@]12O[C@H](C[C@]1(O)CO)n1c3ccccc3c3c4c(c5c6ccccc6n2c5c31)CNC4=O", "note": "[Lestaurtinib] + C[C@@H]1CCN(C(=O)CC#N)C[C@@H]1N(C)c1ncnc2[nH]ccc12 [CP690550] (first compound 0.004 µM, partner dose 1 µM)", "cleaved PARP positive nuclei fraction": 99.1},
      {"smiles": "Cc1ccc(NC(=O)c2cccc(N(C)C)c2)cc1NC(=O)c1ccc(O)cc1", "note": "+ C/C(O)=C(\\C#N)C(=O)Nc1cc(Br)ccc1Br [LFM-A13] (first compound 2 µM, partner dose 2 µM)", "cleaved PARP positive nuclei fraction": 98.5}
    ]},
    {"system": "WM1745", "assay": "cleaved PARP positive nuclei fraction relative to DMSO control; melanoma cells; higher = more apoptosis", "settings": "library dose: low library concentration; 72 h", "units": {"cleaved PARP positive nuclei fraction": "%"}, "values": [
      {"smiles": "C[C@]12O[C@H](C[C@]1(O)CO)n1c3ccccc3c3c4c(c5c6ccccc6n2c5c31)CNC4=O", "note": "[Lestaurtinib] + CCN(CC)CCCCNc1ncc2cc(-c3cc(OC)cc(OC)c3)c(NC(=O)NC(C)(C)C)nc2n1 [PD173074] (first compound 0.004 µM, partner dose 0.1 µM)", "cleaved PARP positive nuclei fraction": 105},
      {"smiles": "N#Cc1c(O)c2c(-c3ccc(-c4ccccc4O)cc3)csc2[nH]c1=O", "note": "+ O=C(Oc1ccc([N+](=O)[O-])cc1)N1CCC(C(O)(c2ccc3c(c2)OCO3)c2ccc3c(c2)OCO3)CC1 [JZL184] (first compound 2 µM, partner dose 1 µM)", "cleaved PARP positive nuclei fraction": 87.9},
      {"smiles": "C[C@]12O[C@H](C[C@]1(O)CO)n1c3ccccc3c3c4c(c5c6ccccc6n2c5c31)CNC4=O", "note": "[Lestaurtinib] + O=c1cc(-c2cccc3c2Sc2ccccc2S3)oc(N2CCOCC2)c1 [KU55933] (first compound 0.004 µM, partner dose 1 µM)", "cleaved PARP positive nuclei fraction": 96.4},
      {"smiles": "CCc1ccc(CCOc2ccc(CC3SC(=O)NC3=O)cc2)nc1", "note": "(stereo not given) [pioglitazone] + O=C(Oc1ccc([N+](=O)[O-])cc1)N1CCC(C(O)(c2ccc3c(c2)OCO3)c2ccc3c(c2)OCO3)CC1 [JZL184] (first compound 2 µM, partner dose 1 µM)", "cleaved PARP positive nuclei fraction": 111},
      {"smiles": "COc1cc2c(Oc3ccc4[nH]c(C)cc4c3F)ncnc2cc1OCCCN1CCCC1", "note": "[cediranib] + Cc1cc(SCc2sc(-c3ccc(C(F)(F)F)c(F)c3)nc2C)ccc1OCC(=O)O [GW0742] (first compound 0.4 µM, partner dose 2 µM)", "cleaved PARP positive nuclei fraction": 236},
      {"smiles": "Cc1cc(SCc2sc(-c3ccc(C(F)(F)F)c(F)c3)nc2C)ccc1OCC(=O)O", "note": "+ O=C(Oc1ccc([N+](=O)[O-])cc1)N1CCC(C(O)(c2ccc3c(c2)OCO3)c2ccc3c(c2)OCO3)CC1 [JZL184] (first compound 2 µM, partner dose 1 µM)", "cleaved PARP positive nuclei fraction": 106},
      {"smiles": "Cc1cc(SCc2sc(-c3ccc(C(F)(F)F)c(F)c3)nc2C)ccc1OCC(=O)O", "note": "+ COc1cc(N2CCC(N3CCN(C)CC3)CC2)ccc1Nc1ncc(Cl)c(Nc2ccccc2S(=O)(=O)C(C)C)n1 [NVP-TAE684] (first compound 2 µM, partner dose 0.08 µM)", "cleaved PARP positive nuclei fraction": 90.7},
      {"smiles": "C[C@]12O[C@H](C[C@]1(O)CO)n1c3ccccc3c3c4c(c5c6ccccc6n2c5c31)CNC4=O", "note": "[Lestaurtinib] + COC(=O)c1sccc1S(=O)(=O)Nc1ccc(Nc2ccccc2)cc1OC [GSK0660] (first compound 0.004 µM, partner dose 1 µM)", "cleaved PARP positive nuclei fraction": 91},
      {"smiles": "C[C@]12O[C@H](C[C@]1(O)CO)n1c3ccccc3c3c4c(c5c6ccccc6n2c5c31)CNC4=O", "note": "[Lestaurtinib] + CC1(C)NC(=O)N(c2ccc([N+](=O)[O-])c(C(F)(F)F)c2)C1=O [nilutamide] (first compound 0.004 µM, partner dose 1 µM)", "cleaved PARP positive nuclei fraction": 89.3},
      {"smiles": "O=C1NC(=O)/C(=C/c2ccc(-c3ccc(F)cc3O)o2)S1", "note": "+ O=C(Oc1ccc([N+](=O)[O-])cc1)N1CCC(C(O)(c2ccc3c(c2)OCO3)c2ccc3c(c2)OCO3)CC1 [JZL184] (first compound 1 µM, partner dose 1 µM)", "cleaved PARP positive nuclei fraction": 97.4},
      {"smiles": "Oc1cc(-c2nc(-c3ccccc3)[nH]c2-c2ccncc2)ccc1Cl", "note": "+ O=C(Oc1ccc([N+](=O)[O-])cc1)N1CCC(C(O)(c2ccc3c(c2)OCO3)c2ccc3c(c2)OCO3)CC1 [JZL184] (first compound 0.2 µM, partner dose 1 µM)", "cleaved PARP positive nuclei fraction": 220},
      {"smiles": "C[C@]12O[C@H](C[C@]1(O)CO)n1c3ccccc3c3c4c(c5c6ccccc6n2c5c31)CNC4=O", "note": "[Lestaurtinib] + O=S(=O)(c1ccccc1)N(CC(F)(F)F)c1ccc(C(O)(C(F)(F)F)C(F)(F)F)cc1 [T0901317] (first compound 0.004 µM, partner dose 1.4 µM)", "cleaved PARP positive nuclei fraction": 108},
      {"smiles": "NCC(=O)Nc1ccc(-n2nc(C(F)(F)F)cc2-c2ccc3c(ccc4ccccc43)c2)cc1", "note": "+ O=C(Oc1ccc([N+](=O)[O-])cc1)N1CCC(C(O)(c2ccc3c(c2)OCO3)c2ccc3c(c2)OCO3)CC1 [JZL184] (first compound 1 µM, partner dose 1 µM)", "cleaved PARP positive nuclei fraction": 96},
      {"smiles": "C[C@@H]1CCN(C(=O)CC#N)C[C@@H]1N(C)c1ncnc2[nH]ccc12", "note": "+ C/C(O)=C(\\C#N)C(=O)Nc1cc(Br)ccc1Br [LFM-A13] (first compound 1 µM, partner dose 2 µM)", "cleaved PARP positive nuclei fraction": 334},
      {"smiles": "C[As](C)SC[C@H](NC(=O)CC[C@H](N)C(=O)O)C(=O)NCC(=O)O", "note": "[Darinaparsin] + O=C(Nc1ccccc1)c1cc([N+](=O)[O-])ccc1Cl [GW9662] (first compound 0.4 µM, partner dose 2 µM)", "cleaved PARP positive nuclei fraction": 86.6},
      {"smiles": "C[C@]12O[C@H](C[C@]1(O)CO)n1c3ccccc3c3c4c(c5c6ccccc6n2c5c31)CNC4=O", "note": "[Lestaurtinib] + O=C(O)c1ccc(-c2c[nH]c3ncc(-c4ccccc4)cc23)cc1C1CCCC1 [GSK650394] (first compound 0.004 µM, partner dose 0.16 µM)", "cleaved PARP positive nuclei fraction": 106}
    ]}
  ]
}
